Source: PubChem BioAssay AID493246 (Drosophila RNAi Screening Center, 2011)
The screen tested about 21,000 reagents; below is a random part of those that have a named target and a result. Of all reagents, 429 (2%) got an active call. 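Values are raw and not normalised between plates; calls rest on per-plate z-scores that were not deposited.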 A number with no mark means an inactive call. No sequences are given here. The record does not give: the amount of reagent, the time to read-out.

Assay: 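Identify essential fly genes by loss of cell viability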 (primary screen)
Cell system: Drosophila Kc and S2R+ cells
Knock-down reagent: long dsRNA against Drosophila genes
Detection: 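Raw, unnormalised count of remaining cells in each well; per-plate z-scores of cell number underlie the calls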
Scale: Kc cell number and S2R+ cell number: higher = more cells remaining
Hit rule: 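Active when the per-plate z-score of cell number is 3 or more in the direction of fewer cells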

Against Pglym87 (Phosphoglyceromutase 87) [DRSC15252] the deposit lists Kc cell number, rep 1 = 1.54e6; Kc cell number, rep 2 = 1.56e6; S2R+ cell number, rep 1 = 1.19e6; S2R+ cell number, rep 2 = 1.25e6.
Against CG5828 [DRSC02900], the values are Kc cell number, rep 1 = 1.79e6; Kc cell number, rep 2 = 1.89e6; S2R+ cell number, rep 1 = 1.31e6; S2R+ cell number, rep 2 = 1.53e6.
After knock-down of Mst84B (Male-specific transcript 84B) [DRSC12579], the record shows Kc cell number, rep 1 = 1.42e6; Kc cell number, rep 2 = 1.61e6; S2R+ cell number, rep 1 = 1.24e6; S2R+ cell number, rep 2 = 1.36e6.
Silencing of Ctr9 [DRSC08562] gave: Kc cell number, rep 1 = 1.42e6; Kc cell number, rep 2 = 1.46e6; S2R+ cell number, rep 1 = 9.92e5; S2R+ cell number, rep 2 = 9.84e5.
Silencing of CkIIalpha (casein kinase IIalpha) [DRSC11946] gave: Kc cell number, rep 1 = 1.35e6; Kc cell number, rep 2 = 1.42e6; S2R+ cell number, rep 1 = 1.01e6; S2R+ cell number, rep 2 = 1.12e6.
For Sobp (Sine oculis-binding protein) [DRSC07312] the deposit lists Kc cell number, rep 1 = 1.43e6; Kc cell number, rep 2 = 1.50e6; S2R+ cell number, rep 1 = 1.07e6; S2R+ cell number, rep 2 = 1.09e6.
Pka-C3 (Protein kinase, cAMP-dependent, catalytic subunit 3) [DRSC09402] gave Kc cell number, rep 1 = 1.48e6; Kc cell number, rep 2 = 1.61e6; S2R+ cell number, rep 1 = 1.16e6; S2R+ cell number, rep 2 = 1.32e6.
Pka-C3 (Protein kinase, cAMP-dependent, catalytic subunit 3) [DRSC11254] showed Kc cell number, rep 1 = 1.52e6; Kc cell number, rep 2 = 1.89e6; S2R+ cell number, rep 1 = 1.10e6; S2R+ cell number, rep 2 = 1.25e6.
MBD-like (Methyl-CpG binding domain protein-like) [DRSC16996] gave Kc cell number, rep 1 = 1.55e6; Kc cell number, rep 2 = 1.52e6; S2R+ cell number, rep 1 = 1.18e6; S2R+ cell number, rep 2 = 1.29e6.
Bro [DRSC08149] gave Kc cell number, rep 1 = 1.36e6; Kc cell number, rep 2 = 1.28e6; S2R+ cell number, rep 1 = 1.02e6; S2R+ cell number, rep 2 = 1.26e6.
Wnt6 (Wnt oncogene analog 6) [DRSC02795] scored Kc cell number, rep 1 = 1.78e6; Kc cell number, rep 2 = 1.91e6; S2R+ cell number, rep 1 = 1.32e6; S2R+ cell number, rep 2 = 1.53e6.
With knock-down of hoip (hoi-polloi) [DRSC03546] the results were Kc cell number, rep 1 = 9.49e5 (active); Kc cell number, rep 2 = 9.80e5; S2R+ cell number, rep 1 = 4.58e5; S2R+ cell number, rep 2 = 5.40e5.

Laid out differently: entries from further up.
Gene | dsRNA | Kc cell number, rep 1 | Kc cell number, rep 2 | S2R+ cell number, rep 1 | S2R+ cell number, rep 2
Pka-C3 (Protein kinase, cAMP-dependent, catalytic subunit 3) | DRSC09402 | 1.48e6 | 1.61e6 | 1.16e6 | 1.32e6
Pka-C3 (Protein kinase, cAMP-dependent, catalytic subunit 3) | DRSC11254 | 1.52e6 | 1.89e6 | 1.10e6 | 1.25e6
